This passage reports z-score results from PubChem BioAssay AID1347423 (Functional Genomics Laboratory (NCATS/FGL), 2020).

Out of some 52,000 sequences screened, about 210 (0.4%) were called active.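 Rule for the calls: active = gene whose silencing raises cell survival under the drug, median off-target-corrected z-score across its silencing RNAs 2 or more; inactive = the rest.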 This is one part of the list.

A short description of the assay: Resistance to Poly (ADP-Ribose) Polymerase inhibitor: Gene Identification via Genome-wide siRNA Screen. Particulars: mouse BRCA2 R2336H ES cells, olaparib, CellTiter-Glo viability; hits give high values. In a few lines:
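Mouse BRCA2 R2336H ES cells were reverse-transfected with siRNA (20 nM final), treated at 48 h with 500 nM olaparib, and read by CellTiter-Glo after 72 h. Scores: MAD-based z per siRNA, median per gene, seed off-target correction.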
Take “GGCUUUGUGGACUUAAUUATT against D630003K02Rik”: the z-score is inactive: 2.9. Take GGUUUUACCAGAAAUUCAGTT against Lactb2: the z-score is inactive: 0.321. With GGACUUUCUAAGGGUAAAATT against Luzp1, the z-score is inactive: 1.18. GGGACAGGUUGAGGUCUAUTT against V1rf5: the z-score was inactive: -2.11. For CGCUGAAGUCUUUUCACAATT against Baiap2, the z-score is inactive: 0.843. In the case of GCCUUUGCAUGGCAGUCUATT against BC012278, the z-score is inactive: -1.07. As to “GCAGAUAGUUUUGUAACACTT against A830080D01Rik”, the z-score is inactive: -0.987. “CCAUAGAGCUAAGUUAUUGTT against 2410014A08Rik”: the z-score was inactive: -0.862. Regarding GGAUGACUUUGAGUGUGUGTT against AW210570, the z-score is inactive: -0.145. As for CCAAUUGAGGCUGACGUGATT against Dld, the z-score was inactive: -0.918. With GCUUUACUCCCUAAAUUCATT against Dmrt3 the figure was inactive: 0.221. For the sequence CCAGCUGUUCGCAAAAAAATT against Zfp265, the z-score is inactive: 0.93. For the sequence “GGCCAACCUAAGUCUCAUATT against B830017H08Rik”, the z-score is inactive: -0.26. The result for “GGUGGUAAAGAUUACAUCUTT against 1110005A23Rik” reads inactive: -0.538; that for GGCGUGUAUGUCAAAAAUATT against Grip1, inactive: 0.555. For the sequence GGCUAUUUUGGGACGGCUUTT against Slc16a14, the z-score is inactive: -0.218. For the sequence GGACAAAAUACGUGAUAUUTT against Bcmo1, the z-score is inactive: -0.621. For GGAUAUGGAGAGUCAUGUGTT against Pcqap, the z-score is inactive: 0.0423. With GGAGGAAAAUGUCCUUGUUTT against Pth the figure was inactive: -0.885; with “CCUCAUCACACAGGACCCATT against 8430411H09Rik”, inactive: -1.46. As for GGAAAGGUCAAGAGAAUUUTT against Strn3, the z-score was inactive: 1.02.

With “GGACAAGCUGAGGUGAAAATT against 4932425I24Rik”, the z-score is inactive: -1.23.

With GGGAUUCUGCUGGCUAUGATT against Olfr641, the z-score was inactive: -2.48. Regarding GGUAGAUAAUGAAGACAUCTT against Frk, the z-score is inactive: 0.0585.

Consider GGAAGUGCUAAAGAAGUACTT against Dtx4, for which the z-score is inactive: 0.371.

GGCCUUUAUUCUAUGCAGUTT against Htr3a: the z-score is inactive: 0.27. The result for GCUAGGUGCUGCUACGAAATT against Gm720 reads inactive: 0.591.

As for CCUCAAUCGGACCUGUAUUTT against Dstn, the z-score is inactive: -0.635. The result for GCCUCUAUUCUACACCACATT against AI428855 reads inactive: -0.104; that for GAGAAACUCUGUGAAUAUATT against Zfp97, inactive: 0.731; that for GGAGAACAUUCAGGUGACATT against Pdgfd, inactive: -0.258.

“GGCUCAACCAAGAAAGGCUTT against 4930591A17Rik”: the z-score was inactive: -0.211.

Take CCCAAAGGGUCAAGAUAAUTT against Hmgcr: the z-score is inactive: 0.182. Turning to GGCAAAAGCAAGCUCACAGTT against Pctk1, the z-score was inactive: -0.243.

As for GGAAAUUUACUCAAGAAGCTT against Trpc4ap, the z-score is inactive: -0.66. In the case of GGCCCAGUCCGAUAUUCUATT against Phxr4, the z-score is inactive: -0.793.

For GCUGGUCCUAUCUGUGCUUTT against Olfr1099, the z-score was inactive: -1.97. Take GCUCCUCGUCUCAUGAUAATT against Smc4l1: the z-score was inactive: -0.723.

As for GCCUAUGAUUUACUGGAUCTT against Oas1b, the z-score is inactive: -0.943. With GGCGGAAUACCCAAAAAUATT against Cdkal1 the figure was inactive: -0.0838; with “GGCUAUUUGUUACACCGUCTT against 0610041B22Rik”, inactive: 0.312. The result for “GGCAACUGUUACUUUUAAUTT against 2810046L04Rik” reads inactive: 0.303. Regarding “CCAGAAGUGAUCGCCUCUUTT against D930016N04Rik”, the z-score was inactive: 1.42. The result for “GUUACUGCGUGGACUGUGUTT against C730034F03Rik” reads inactive: -0.937; that for “GGAAUGUCAAUCUUGAGAGTT against 2300003P22Rik”, inactive: -1; that for GGUGCGUAUAGCUUUCCGATT against Fbxo46, inactive: -0.28.

Regarding CGAAGAUUAAUUUUGCUCATT against Lrrtm2, the z-score was inactive: 0.597.

As for CCUCUAUCGAGGUUCGUUCTT against Hspa5bp1, the z-score was inactive: 1.18. For the sequence “GGAGACUUUGUCGUGUUUATT against D3Ertd300e”, the z-score is inactive: 0.256. Take GGAUCCUUCGAAUCCUGAATT against Cst11: the z-score was inactive: -1.97. With GGCUUACCUGGUCUACUCCTT against Wnt8b the figure was inactive: -1.64; with “GCUUACCUGCUGUCUUAAUTT against F630003A18Rik”, inactive: -2.14. For the sequence CCGGAGUUGAAACCUAAAATT against Nsbp1, the z-score is inactive: -0.0297. With GGACACAGACAUCCUCUUGTT against Sult5a1 the figure was inactive: -2.39; with “CCUAGUACUUCGAAGAAAGTT against 6430550H21Rik”, inactive: 1.07. Regarding CGAAAGGUAGUGCUUUCCATT against Hipk3, the z-score is inactive: -1.54. In the case of GGACCCAAAACUACAGCCUTT against Olfr850, the z-score was inactive: 0.0168. As for GGGUGUCAUAUCACAUAUGTT against Dpt, the z-score was inactive: 0.474.

For “GGUGGUCUACAAGACAGUATT against 9130231C15Rik”, the z-score is inactive: 0.713.

As to GCUAUGUGGGAAGUUUCAUTT against AI597468, the z-score is inactive: 1.84.

Turning to CCUCCACUCCUAAUGAGAUTT against Cideb, the z-score is inactive: -1.07.

As to GGCAUCUUCAAAUGACAUATT against Cic, the z-score was active: 2.45.

With “GGAUAUACAUCAUUUCUCATT against D930015E06Rik”, the z-score was inactive: 0.0882. Turning to “GGUUGUGGUGUACAAGAUUTT against 2810046C01Rik”, the z-score was inactive: 0.818. For CCUUCAUUUAUUCUACGAGTT against LOC244556, the z-score was inactive: 0.476. With GGUGAUUAGCAAUCAUCAGTT against MGC107415 the figure was inactive: -0.195; with CCAGUAGAAAGAAUCCAGATT against Gm128, inactive: -1.55. For CCCGAUUAUUCAUCUGCACTT against Gm295, the z-score was inactive: -1.09. As for CCUUUCUCCUGCUAUUUUATT against Tspyl1, the z-score is inactive: -2.14.

As to GGUUUCAGGCAUUAUCACATT against Tec, the z-score is inactive: 0.522. With GGCCAAAUCAACCAACAGCTT against Rasgrp1 the figure was inactive: 0.567; with “GGACUGUUUACUCAGCUCATT against 5730438N18Rik”, inactive: -0.132.

GGAGAAUGCAAUAUCAACUTT against Osbpl9: the z-score was inactive: -0.547. As for CGAGACCUUUAUCUUGGAGTT against Unc13d, the z-score is inactive: -0.232. For the sequence “GCUAGAUCUUUCAUCCAACTT against A930016D02Rik”, the z-score is inactive: -0.21. On to CCUCUACUCAAGUUUACUUTT against Casq2, for which the z-score is inactive: 1.08. With GGAUGUCUAACCCAAAUAGTT against Ly6e the figure was inactive: -0.883. For the sequence GGCAGUAGAGUCCAUCCAGTT against Maea, the z-score was inactive: -1.72.

On to GGCCAUUUCUAUGAAAUUATT against Olfr1016, for which the z-score was inactive: 0.873. With GGAAAUGCCAUCGUCAUUUTT against Gpr1 the figure was inactive: 1.01. For “GCCUUGAUUCGCAUAAUGATT against 0610025P10Rik”, the z-score was inactive: -1.29.

With GGCUUUGACCCGAAAAGAATT against Zcchc11, the z-score is inactive: -0.539. As to GGAGGCCUUGUACUUACACTT against Rspondin, the z-score was inactive: -0.0618. Take CGAAAAGGUGUGGCCAUCATT against Ddx48: the z-score was inactive: -1.27. With GGAGUAUGUCCAUUGUCACTT against V1re8, the z-score is inactive: 1.38. With CCUAUAACCGGACUUAUGATT against Ctsf, the z-score is inactive: -0.916. With GCCCUUAAUUGAACAAAUATT against Za20d1 the figure was inactive: -0.194; with GGGCCUUCCAAAAAAGAAGTT against Zcchc6, inactive: 0.343; with “CGGCAUCAUUCAUUCAUUATT against 4933428G09Rik”, inactive: -0.66. The result for “GUACCUACUUCACCACCAUTT against C730025P13Rik” reads inactive: -1.99. Turning to “GGCUGAAGAUUUACUUCUATT against E130103I17Rik”, the z-score was inactive: 1.1.

Consider GGUGACCUACAAGAUUUGUTT against AI481750, for which the z-score was inactive: 0.0847. For the sequence CGGUACAAGCUUGUGGAGCTT against Mmd2, the z-score was inactive: 0.454. With GCCAAGAUCCAGGUGUGGUTT against Og9x, the z-score is inactive: 0.209. The result for CCAGUUAAGCCAAACUAUGTT against Wdr5 reads inactive: -2.64; that for “GCCACCCAGUUAUUUGAAATT against 3110001D03Rik”, inactive: 0.831. With GGCAUUCUCCCUUUGGUGATT against Armc5, the z-score was inactive: 1.31. As for GGAGUUUCUUCAGUUCCUUTT against Dld, the z-score was inactive: -1.69. The result for GGGCAACAAGACUUUGAAATT against BC014795 reads inactive: -0.916; that for GGAAUUAAUGGUGAAGUAUTT against Pcdhb19, inactive: -1.08.

On to GGAAGUCUAAACAAAGCAATT against Ttc14, for which the z-score is inactive: 0.511. The result for CCAAUUCUACAAUCCGACATT against Tmc5 reads inactive: 0.985; that for GGAGGAUGCUGACAAGGAATT against Gnat2, inactive: -2.18.
